The source of these data is PMC4884984, “Identification of approved and investigational drugs that inhibit hypoxia-inducible factor-1 signaling” (Oncotarget, 2016).

For this experiment, the system named is HIF-1α–NanoLuc. Briefly: HIF-1α–NanoLuc reporter gene assay (qHTS primary and confirmatory screens). It is filed as cell-based. As to conditions: Homo sapiens; Table S2; primary screen; read-out: Pathway inhibitors (primary screen) HIF-1α–NanoLuc Activity IC50. On the technique in general: Reporter assays use an easily measured gene product as a stand-in for the process of interest.

Structures are written as SMILES.

As usually defined, the IC50 is the concentration that gives 50% inhibition. Regarding `Cc1ccc(NC(=O)c2ccc(CN3CCN(C)CC3)cc2)cc1Nc1nccc(-c2cccnc2)n1` [Imatinib], the half-maximal inhibitory concentration (IC50) came out at 33.5 µM.
